# Screening data, single-dose tests

Mtb glucose medium: 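Whole-cell growth test on Mycobacterium tuberculosis, read after 3 days in glucose-containing 7H9 medium; the read-out is not stated. Tested at 50 µM. Direction is inferred from retests: higher values go with more growth inhibition. Of about 69,000 compounds tested this way, about 760 (1.1%) reached 50% or more in at least one test.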
Mtb cholesterol medium: 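Phenotypic screen: M. tuberculosis growth, cholesterol and DPPC medium, 4 days; the read-out is not stated. Tested at 50 µM. Direction is inferred from retests: higher values go with more growth inhibition. Of about 69,000 compounds tested this way, about 370 (0.54%) reached 50% or more in at least one test.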

Values are the deposited “Percent Effect”, in %.
The record does not define 0% and 100%; most values in the screen are far below 50% and negative numbers occur (in some assays of this library far below -100).
This is an unselected part of the compounds tested.
Two or more numbers in one place are separate tests of the same structure; such repeats can differ widely.

SMILES | Mtb glucose medium | Mtb cholesterol medium
CCn1ccnc1CN1CCC(CCC(=O)Nc2ccccc2Cl)CC1 | -30.55 | -7.875
COc1cc(OC)cc(C(=O)Nc2ncnc3c2CCC3)c1 | -2.081 & -54.95 | -63.77
COc1cc(C(=O)N2CCCS2(=O)=O)cc(Cl)c1OC | 21.12 | 2.19
O=C(NCCC1CCN(CC(F)(F)F)CC1)C1COCCO1 (stereo unspecified) | -1.632 | 12.96
Cc1cnn(CC2CCCN2C(=O)c2cc3ccccc3c(=O)[nH]2)c1 (stereo unspecified) | 14.37 | 0.2082
O=C(NCCC(O)c1ccco1)c1ccco1 (stereo unspecified) | 19.18 | -2.608
Cc1ccc(CC(=O)N2CCCCC2c2nc(C)cs2)cn1 (stereo unspecified) | -25.92 | -26.08
Cc1ccnc(N2CCCC(c3noc(C(C)C)n3)C2)n1 (stereo unspecified) | 23.27 | 34
Cn1nnc2c1CCN(C(=O)C1CCC1)C2COCCN1CCCC1.O=C(O)C(F)(F)F (stereo unspecified) | -19.74 & -8.607 | -6.923
CC(=O)N1CCN(CC=C(C)C)CC1 | 11.3 | -15.29
Cc1csc(CCNC(=O)N2CCC(NC(=O)OC(C)(C)C)CC2)n1 | -41.43 | 7.149
CCN1CC(C(=O)NC(C)(C)CC(C)(C)C)CC1=O (stereo unspecified) | 27.57 | 16.45
COc1cccc(CN2CCCC3(CCN(C(=O)c4ccco4)C3)C2)c1 (stereo unspecified) | -7.137 | -0.8509
COCCCNC(=O)C1CN(C(=O)c2cnccn2)C1 | 15.22 & 0.15 | 5.005
CS(=O)(=O)CC1(CNc2ccc(C#N)c(C(F)(F)F)c2)CC1 | 21.65 | 12.61
C=C(C)CNc1ccc(C(=O)N(CC)Cc2nccn2C)cn1 | -1.74 & 1.527 | 5.156
O=C(CCc1ccccc1)N1CCC(N2CCNC2=O)CC1 | -2.249 | -10.65
CCc1nnc(CNc2ccc(CC(=O)N3CCSCC3)cc2)o1 | 26.91 | 12.81 & -1.453
O=C(Cn1ccc2ncccc2c1=O)N1CCSCC1 | 0.1987 & 2.966 | 1.536
CC(c1ccco1)N(C(=O)Cn1nc2n(c1=O)CCCCC2)C1CC1 (stereo unspecified) | -16.3 | 8.978
O=C(O)C(F)(F)F.[H][C@@]12COC[C@]1(c1nc(C)no1)CN(Cc1cc(C)on1)C2 | -84.34 & -4.88 | -20.75
CCn1nnnc1-c1cccc(NCc2nc(C)ccc2O)c1 | -24.27 | 4.871
Cc1nc(C)n(CC2CCCCN2CCCO)n1 (stereo unspecified) | -34.86 | 5.368 & 2.025
Cc1ccc(NCCCNC(=O)NCc2c(C)cc(C)[nH]c2=O)nc1 | -8.541 & -4.743 | 4.356
CCc1nc(CN(C)CC(=O)OC(C)(C)C)cs1 | 13.62 | -5.782
CS(=O)(=O)N1CCCC12CCN(Cc1ccoc1)CC2 | -20.96 | -2.283
Cc1cc(C)n(CC2CN(CC(=O)N3CCC3)CCO2)n1 (stereo unspecified) | -22.24 | -14.91
Cc1nc(CCN)cc(N2CCCN(C(=O)c3ccco3)CC2)n1 | 11.68 | 10.81 & -0.1156
O=C(c1csc(-c2cnccn2)n1)N1CCCC1Cn1cccn1 (stereo unspecified) | 7.405 | 2.656
[H][C@@]12COC[C@]1(COc1nccc(C)n1)CN(C(=O)Cc1ccsc1)C2 | 28.86 | 13.91
CC(C)Sc1ncccc1C(=O)NCc1ccc(O)cc1 | -1.492 | -4.72
O=C(NC1CC1)c1nnn(-c2cccc(C(F)(F)F)c2)c1C1CC1 | 3.855 | 3.24
Cn1cc(-c2nc(CN3CCc4c(ncn4C)C3)cs2)cn1 | -46.03 | -32.81
CNc1cc(C(=O)N(C)Cc2cc(-c3cccs3)n[nH]2)ccn1 | -34.32 | 4.442 & -0.6977
CCc1nn(C)c(Cl)c1CN1CCCC(c2cc(O)nc(C)n2)C1 (stereo unspecified) | -6.811 | -25.22
[H][C@@]12CCCC[C@]1(O)CCN(C(C)=O)[C@H]2c1ccccc1 | -19.28 | -15.42
O=C(O)[C@@H]1CN(C2CCOCC2)C[C@H]1C1CC1 | 2.708 & 37.54 | 7.723
Cc1nc(NC(=O)c2c(-n3cnnn3)sc(C)c2C)sc1C | -24.75 | -7.118
CNC(=O)CCC(=O)N1CCOC(c2ccc3cc(OC)ccc3c2)C1 (stereo unspecified) | -30.58 | -3.928
COc1ccnc(N2CCN(C(=O)CN3CCOCC3)CC2)n1 | 14.54 | -21.58
O=c1c2sccc2ncn1CC(O)CN1CCOCC1 (stereo unspecified) | -20.44 | -27.83
CC(C)c1cc(NCC2(N(C)C)CCCC2)ncn1 | 7.903 | 1.426
Cn1ccc(C(=O)N2CCC(Cc3cccc4ncccc34)CC2)n1 | 27.4 | 15.01
O=C(NCCCNc1ccc(C(F)(F)F)cn1)c1ccccc1 | 43.59 | 26.12
NC(=O)Cn1cc(NC(=O)NCC2CCN(c3ccccc3)C2)cn1 (stereo unspecified) | -10.8 | -12.55
c1ccc(-c2nc(CN3CCCC3Cn3cccn3)no2)cc1 (stereo unspecified) | 20.07 | -6.824
CCC(C)(N)c1nc(=O)c(C)c(C)[nH]1 (stereo unspecified) | 26.16 | 20.59
Cc1ccc(O)c(C(=O)N2C[C@@H](C(=O)O)[C@H](c3ccccc3)C2)c1 | -38.59 | -9.787
COCC(C)(C#N)NC(=O)c1cn(-c2cccc(Cl)c2F)nn1 (stereo unspecified) | -5.307 | -14.26
O=C(O)C(F)(F)F.[H][C@@]12CN(Cc3ccc(F)cc3)C[C@H](C(=O)N3CCCO3)[C@]1([H])CCO2 | 21.37 & -3.426 | 20.98

The last 5 entries again:

SMILES,Mtb glucose medium,Mtb cholesterol medium
c1ccc(-c2nc(CN3CCCC3Cn3cccn3)no2)cc1 (stereo unspecified),20.07,-6.824
CCC(C)(N)c1nc(=O)c(C)c(C)[nH]1 (stereo unspecified),26.16,20.59
Cc1ccc(O)c(C(=O)N2C[C@@H](C(=O)O)[C@H](c3ccccc3)C2)c1,-38.59,-9.787
COCC(C)(C#N)NC(=O)c1cn(-c2cccc(Cl)c2F)nn1 (stereo unspecified),-5.307,-14.26
O=C(O)C(F)(F)F.[H][C@@]12CN(Cc3ccc(F)cc3)C[C@H](C(=O)N3CCCO3)[C@]1([H])CCO2,21.37 & -3.426,20.98

Source: ChEMBL document CHEMBL3988442, “University of Dundee, Small-Polar-MMV Screening Library” (2021).